{"source": "paper PMC5102582", "about": "(eLife, 2016)", "biological_target": "p47 UBX domain (residues 282-371) (Mus musculus) (UniProt Q9CZ44)", "assay": "SEC; HiLoad 16/60 Superdex 75 gel filtration column, during purification of p47 UBX; both purified", "note": "No constants are given. Whether binding was seen depends on the method and setting.", "data": [{"binder": "p47 UBX domain (residues 282-371) (domain or fragment, UniProt Q9CZ44 282-370) KASSSILINEAEPTTNIQIRLADGGRLVQKFNHSHRISDIRLFIVDARPAMAATSFVLMTTFPNKELADENQTLKEANLLNAVIVQRLT", "values": [{"measurement": "binding", "value": "no binding"}]}]}
